Measured values published in article PMC10396025.
No constants are given. Whether binding was seen depends on the method and setting. Binding seen in cells or lysates may run through a third protein. Some results given as binding are weak or reduced against the parent protein; the word gives no strength.

By UniProt entry, the sequences of proteins in these tests, tags left out.
UniProt P97496: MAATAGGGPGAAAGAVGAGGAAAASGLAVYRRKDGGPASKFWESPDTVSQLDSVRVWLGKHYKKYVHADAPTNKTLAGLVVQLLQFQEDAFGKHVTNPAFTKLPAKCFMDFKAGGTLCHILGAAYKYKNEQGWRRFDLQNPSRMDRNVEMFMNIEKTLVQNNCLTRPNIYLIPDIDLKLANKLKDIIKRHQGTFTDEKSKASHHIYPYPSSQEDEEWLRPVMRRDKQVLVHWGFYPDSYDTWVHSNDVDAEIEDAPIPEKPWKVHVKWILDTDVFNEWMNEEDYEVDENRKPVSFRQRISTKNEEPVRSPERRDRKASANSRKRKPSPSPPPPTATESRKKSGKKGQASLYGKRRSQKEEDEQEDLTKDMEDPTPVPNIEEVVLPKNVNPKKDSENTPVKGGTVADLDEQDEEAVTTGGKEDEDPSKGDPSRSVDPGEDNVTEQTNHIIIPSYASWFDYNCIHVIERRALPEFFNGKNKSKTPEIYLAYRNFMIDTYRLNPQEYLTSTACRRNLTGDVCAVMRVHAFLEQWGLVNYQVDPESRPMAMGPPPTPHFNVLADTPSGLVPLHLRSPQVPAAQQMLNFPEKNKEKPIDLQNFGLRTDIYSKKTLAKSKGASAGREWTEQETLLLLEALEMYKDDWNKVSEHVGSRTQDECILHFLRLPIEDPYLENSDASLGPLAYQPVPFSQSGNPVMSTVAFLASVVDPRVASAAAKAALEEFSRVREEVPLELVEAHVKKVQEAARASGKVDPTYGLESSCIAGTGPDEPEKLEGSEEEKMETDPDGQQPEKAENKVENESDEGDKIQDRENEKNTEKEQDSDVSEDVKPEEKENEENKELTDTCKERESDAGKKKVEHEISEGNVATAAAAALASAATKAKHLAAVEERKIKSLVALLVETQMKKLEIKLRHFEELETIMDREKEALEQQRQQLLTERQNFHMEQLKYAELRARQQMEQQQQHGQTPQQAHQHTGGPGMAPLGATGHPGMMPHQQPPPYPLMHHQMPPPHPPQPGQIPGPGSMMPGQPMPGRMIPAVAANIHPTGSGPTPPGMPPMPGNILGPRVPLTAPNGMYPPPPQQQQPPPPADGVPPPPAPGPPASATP
UniProt P42227: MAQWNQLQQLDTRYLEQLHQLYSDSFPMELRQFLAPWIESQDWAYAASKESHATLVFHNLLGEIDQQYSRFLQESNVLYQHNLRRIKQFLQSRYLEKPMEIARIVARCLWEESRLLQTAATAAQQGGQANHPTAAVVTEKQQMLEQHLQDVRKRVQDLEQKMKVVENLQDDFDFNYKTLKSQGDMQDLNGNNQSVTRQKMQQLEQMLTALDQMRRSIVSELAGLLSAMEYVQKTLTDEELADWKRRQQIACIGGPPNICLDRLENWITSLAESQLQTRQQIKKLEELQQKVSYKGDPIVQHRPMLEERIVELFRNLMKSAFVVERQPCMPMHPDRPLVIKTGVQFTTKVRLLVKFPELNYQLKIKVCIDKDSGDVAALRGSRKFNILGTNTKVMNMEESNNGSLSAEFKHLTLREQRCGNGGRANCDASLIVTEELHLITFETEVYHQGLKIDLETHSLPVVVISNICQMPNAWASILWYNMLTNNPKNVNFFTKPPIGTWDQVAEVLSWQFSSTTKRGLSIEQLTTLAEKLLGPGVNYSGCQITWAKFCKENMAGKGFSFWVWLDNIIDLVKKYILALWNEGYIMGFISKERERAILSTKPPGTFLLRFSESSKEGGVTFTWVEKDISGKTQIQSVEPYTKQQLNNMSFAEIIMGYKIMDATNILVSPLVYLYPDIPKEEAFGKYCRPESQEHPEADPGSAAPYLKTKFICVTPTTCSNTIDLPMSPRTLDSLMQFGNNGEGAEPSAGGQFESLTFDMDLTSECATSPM

Molecular target: Brg1/Brm-associated factor 155 (Baf155)-His (UniProt P97496)
Assay: co-IP; C2C12 cells co-transfected with His-tagged Baf155 constructs and STAT3 constructs; lysates (Pierce Co-IP lysis buffer, sonication) precipitated with Ni-NTA agarose overnight at 4°C; washed 6 times with 20 mM Tris, 150 mM NaCl, 20 mM imidazole pH 8.0; western blot

binding: binds
Substance: signal transducer and activator of transcription 3 (STAT3)-Flag (from UniProt P42227 1-770)
